Measurements taken from article PMC12439479.
Results are given in words; binding and its absence hold for the method and conditions named. Binding seen in cells or lysates may run through a third protein. Some results given as binding are weak or reduced against the parent protein; the word gives no strength.

Sequences of proteins named here, by UniProt entry; tags and fusion partners are left off. Residues count along the entry.
UniProt Q9NP99, residues 21-234: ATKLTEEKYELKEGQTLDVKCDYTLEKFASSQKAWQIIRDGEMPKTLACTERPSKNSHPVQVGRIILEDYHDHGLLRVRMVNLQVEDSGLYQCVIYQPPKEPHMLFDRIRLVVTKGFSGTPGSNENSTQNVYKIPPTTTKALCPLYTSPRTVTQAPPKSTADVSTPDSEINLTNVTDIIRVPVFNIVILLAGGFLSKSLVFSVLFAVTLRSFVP
UniProt Q04206: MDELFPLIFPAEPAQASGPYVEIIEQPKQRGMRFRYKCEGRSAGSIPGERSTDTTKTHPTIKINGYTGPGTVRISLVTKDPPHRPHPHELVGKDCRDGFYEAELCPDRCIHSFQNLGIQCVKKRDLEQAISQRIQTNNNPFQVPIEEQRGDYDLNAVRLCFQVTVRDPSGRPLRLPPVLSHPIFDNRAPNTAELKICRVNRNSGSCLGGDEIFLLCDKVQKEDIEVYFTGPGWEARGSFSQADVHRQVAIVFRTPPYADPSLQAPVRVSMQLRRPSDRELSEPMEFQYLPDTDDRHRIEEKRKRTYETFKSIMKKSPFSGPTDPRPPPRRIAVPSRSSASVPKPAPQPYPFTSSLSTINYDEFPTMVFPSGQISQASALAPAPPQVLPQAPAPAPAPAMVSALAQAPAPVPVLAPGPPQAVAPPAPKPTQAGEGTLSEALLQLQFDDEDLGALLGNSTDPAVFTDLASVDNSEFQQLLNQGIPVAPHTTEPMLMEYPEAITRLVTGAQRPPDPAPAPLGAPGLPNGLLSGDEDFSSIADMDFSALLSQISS

Target: TREM1 (human (endogenous in HUVEC)) (UniProt Q9NP99)
Test: co-IP; endothelial cell lysates in IP buffer incubated overnight at 4°C with anti-TREM1 antibody-conjugated magnetic beads, three washes, elution in SDS-PAGE buffer, immunoblotting; cells with NETs stimulation

In the case of NF-κB p65 (from UniProt Q04206 1-551), the binding is reported as “binds”.
